Assay results as given in PubChem BioAssay AID2728 (Broad Institute, 2010).
The shares of active, inactive and inconclusive entries below differ from those in the screen. Calls of active or inactive are those of the source.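 How the source made its calls: active means every replicate shows growth inhibition above 50%; inconclusive means at least half but not all replicates above 50% inhibition; inactive means under half of replicates above 50% inhibition.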

Experiment: growth inhibition of V. harveyi BB721, confirmation, cytotoxicity control for AI-2 quorum sensing inhibitors, strain BB721, absorbance OD600 (AID 2728)
Settings: Vibrio harveyi BB721 growth, 9 h, at 7.5 µM, stronger effect = higher value

| SMILES | growth inhibition |
| --- | --- |
| Cc1ccc(CNC(=O)/C=C/c2ccc(Br)o2)cc1 | inconclusive: 38.8% |
| O=C(Oc1ccc2c(=O)c(Oc3ccc4ccccc4c3)coc2c1)c1cccnc1 | inconclusive: 60.5% |
| Cc1ncoc1C(=O)Nc1ccc(Oc2ccccc2)cc1 | inactive: 6.03% |
| Cc1cc(C(=O)NNC(=O)c2ccc(S(=O)(=O)N(C)C)cc2)c(C)o1 | inactive: 12.1% |
| Cc1ccc(CNc2oc(-c3cccs3)nc2C#N)cc1 | inconclusive: 48.3% |
| O=C(NNc1nc(-c2ccc(Br)cc2)cs1)c1ccco1 | active: 68.8% |
